Consider 42 sequences from publication PMC7819943, “Rice protein-binding microarrays: a tool to detect cis-acting elements near promoter regions in rice”.

Sequences of proteins named here, by UniProt entry; tags and fusion partners are left off.
UniProt Q0JBA9, entry or part of it: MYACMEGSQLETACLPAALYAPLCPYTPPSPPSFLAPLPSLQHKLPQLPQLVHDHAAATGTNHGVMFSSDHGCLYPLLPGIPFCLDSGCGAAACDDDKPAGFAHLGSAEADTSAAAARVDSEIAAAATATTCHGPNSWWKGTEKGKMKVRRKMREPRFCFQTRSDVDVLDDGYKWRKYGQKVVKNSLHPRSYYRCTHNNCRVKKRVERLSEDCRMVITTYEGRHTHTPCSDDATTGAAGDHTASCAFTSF

The other results are listed elsewhere or left out.

This experiment addresses OsWRKY34 (Oryza sativa, UniProt Q0JBA9 1-250). The experiment in a line: protein-binding microarray (RPBM); PBS, 2% BSA, 51.3 ng/ul salmon testes DNA, 50 uM zinc acetate, 200 nM TF, 25 C, 1 h; high values mean tight binding. The settings on record: protein: recombinant; tags: N-terminal polyhistidine and DsRed monomer fusion (pET32a); label: CyDye5-dUTP incorporated in the synthesized complementary strand; 3' TTTTT single-stranded linker to array surface; dsDNA, one strand shown. The procedure, abridged: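 Using Ni–NTA, transcription factors fused N-terminally to polyhistidine and DsRed were purified after expression in E. coli BL21-CodonPlus. These were incubated at 200 nM with a blocked, double-stranded custom Agilent array for 1 h at 25 °C in a buffer containing 50 µM zinc acetate, and the array was washed. The binding signal is per-feature fluorescence intensity (arbitrary units) on an Axon 4000B scanner.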
As for “GGAGTTGTTCAGCTGCCTACGGTGTTGTTTCGCAGCCTCTCGGAGTCACCTAGTGCAG”, the binding signal is 10100 fluorescence intensity (a.u.).

As for “TCCCTCCCTTGCTTGGTTGGTTGTACATGCTGCGAATCGACGGAGTCACCTAGTGCAG”, the binding signal was 9210 fluorescence intensity (a.u.). For “GAGTTATACCCAGTTTTCTCCCGGGAGAGATTGTCCCCAGCGGAGTCACCTAGTGCAG”, the binding signal was 8160 fluorescence intensity (a.u.). Turning to “GAGCTTTTATTTCGAGGGAATGGGCAGGGAGCTCCTGCAACGGAGTCACCTAGTGCAG”, the binding signal is 9690 fluorescence intensity (a.u.). Turning to “TTGGCGCCTCCATCAACCGTCCACGTCGTCTTCGGCCTCACGGAGTCACCTAGTGCAG”, the binding signal is 8220 fluorescence intensity (a.u.). As to “CTATCTGATCACCCGTTGCCATCTCCGTCGCTTCAACCACCGGAGTCACCTAGTGCAG”, the binding signal was 15200 fluorescence intensity (a.u.).

“CACGCCACCGCCGATCCCCATCGACCACGACCACGCCGCCCGGAGTCACCTAGTGCAG”: the binding signal is 8460 fluorescence intensity (a.u.). For the sequence “GTACGTTTCATTCAACTCCTTTCACTATTGGGTGTTTTTGCGGAGTCACCTAGTGCAG”, the binding signal was 10800 fluorescence intensity (a.u.). For the sequence “AGCATCTTTTTCTAGGACAGCATCTCTACTTTCAGTTTGACGGAGTCACCTAGTGCAG”, the binding signal is 11800 fluorescence intensity (a.u.).

In the case of “TACTATTGGTGCATATTTAGTTCCAAGGCGTCGTTTTAGTCGGAGTCACCTAGTGCAG”, the binding signal was 8210 fluorescence intensity (a.u.).

In the case of “TCACAACATAAGTCATTTGTAACATTTTCCACATTTATATCGGAGTCACCTAGTGCAG”, the binding signal was 8270 fluorescence intensity (a.u.). In the case of “GGAGGGCGGGACGTTACATTGGGCTGCTGTTCTTAGGATCCGGAGTCACCTAGTGCAG”, the binding signal is 13100 fluorescence intensity (a.u.). Under “TAGCTCAACTCTCAGGTCATCGTCGGCGACCCACACAGGCCGGAGTCACCTAGTGCAG” stands 8020 fluorescence intensity (a.u.).

Consider “GGCCCAAATAGTTCTTGTGGTACAGATCGATGCGACACTCCGGAGTCACCTAGTGCAG”, for which the binding signal was 8590 fluorescence intensity (a.u.).

Consider “TTACTTCCATCGCAACGACATTGCTTGCTACGTCACATGCCGGAGTCACCTAGTGCAG”, for which the binding signal is 8290 fluorescence intensity (a.u.). In the case of “CCGCGACCCCAACCACCACCATCCATCCATACACCCGGAGCGGAGTCACCTAGTGCAG”, the binding signal is 9150 fluorescence intensity (a.u.). For “ATGTGTTAATAGTTTTCTCATTTTCCTTTGAGCCAACCTTCGGAGTCACCTAGTGCAG”, the binding signal was 8980 fluorescence intensity (a.u.).

For the sequence “AGCCATTTTGACCCGTGATGTGACAGCAAACATTTGACGCCGGAGTCACCTAGTGCAG”, the binding signal was 9070 fluorescence intensity (a.u.).

Consider “GCGCTCAACTTTGATCATCTGTCTTATTTGAAATTTTTTTCGGAGTCACCTAGTGCAG”, for which the binding signal was 8590 fluorescence intensity (a.u.).

On to “TTGCTTACACACGTCGTAACAGTTCAGCTAGATGCTTGTCCGGAGTCACCTAGTGCAG”, for which the binding signal is 8140 fluorescence intensity (a.u.). In the case of “CCTGATCTTTCTACCTAGGACCCGTTTTTCTTCTCAGATTCGGAGTCACCTAGTGCAG”, the binding signal was 8990 fluorescence intensity (a.u.). On to “GGTGTGTTGCTTCCATGTTCCAACACGTATAGCCTTTTCGCGGAGTCACCTAGTGCAG”, for which the binding signal was 9930 fluorescence intensity (a.u.).

With “CCACCGACTTCTTCGTCTTCCTCGTTGGTCTCCTCTCTCTCGGAGTCACCTAGTGCAG”, the binding signal was 13900 fluorescence intensity (a.u.). For “GCCTGCCCCATCTGCGCCGCCGAGCTCGCCGTCGACACCGCGGAGTCACCTAGTGCAG”, the binding signal is 9760 fluorescence intensity (a.u.). On to “CACAAGCAGCGCAACAAGCGTTCTTTTGCATCGCCCTTGACGGAGTCACCTAGTGCAG”, for which the binding signal is 8330 fluorescence intensity (a.u.). For “CTCTGACCATATATCACGTTCTACGTCCAGGTCAAATCACCGGAGTCACCTAGTGCAG” the value was 8730 fluorescence intensity (a.u.); for “GGATGTTTCTGTCTTGACTTAACTTGATTGCGACCTGTCACGGAGTCACCTAGTGCAG”, 11000 fluorescence intensity (a.u.); for “TCCTCTTCCTCGTCCTCGTTCTCCTCTCCACCTCAGCTCCCGGAGTCACCTAGTGCAG”, 8030 fluorescence intensity (a.u.). For “GCTCTTAGATGTGTTTCATTAGCTATTGTTGCCCGCTGTCCGGAGTCACCTAGTGCAG”, the binding signal is 9480 fluorescence intensity (a.u.).

For “TCGATATCTCGATTGATGGTTTGATGTTTGTTTAATTCTGCGGAGTCACCTAGTGCAG”, the binding signal is 8490 fluorescence intensity (a.u.).

For “AATGGTGTCAGATCAAGTGAATTTAGGATTGCTGTAACAACGGAGTCACCTAGTGCAG”, the binding signal was 8900 fluorescence intensity (a.u.).

“TACTGAACTTCGAATTTTTTCCACATACTCCTCATAGATTCGGAGTCACCTAGTGCAG”: the binding signal was 8770 fluorescence intensity (a.u.).

As to “GGGACATCTACGCGGGCTACCGTCCGACCCTGCTATCGCCCGGAGTCACCTAGTGCAG”, the binding signal was 9580 fluorescence intensity (a.u.). Under “AGCTTATCGTTATTTTTTTTAAGATTCCACCTTCATATATCGGAGTCACCTAGTGCAG” stands 8110 fluorescence intensity (a.u.); under “AGGGCATCCATTTCTTTCTTTGTTTGATATTGGTGAACTCCGGAGTCACCTAGTGCAG”, 8740 fluorescence intensity (a.u.). For “TTATTGCTTGATGATTCTCTTCTCGTGTATATATGCTTAACGGAGTCACCTAGTGCAG” the value was 11800 fluorescence intensity (a.u.).

With “GATTAGTCATTTTTGTCATTGTTTCTCATTATATTTTTCACGGAGTCACCTAGTGCAG”, the binding signal was 14100 fluorescence intensity (a.u.). For the sequence “CCTTCCGCCGCCGCCGTCGCCGTCGCCTGCTCCAGCGCGCCGGAGTCACCTAGTGCAG”, the binding signal is 8740 fluorescence intensity (a.u.). Consider “AGCCACTACGCCCCTAGACAGATATAAGCTCGTCTCCTTCCGGAGTCACCTAGTGCAG”, for which the binding signal was 8070 fluorescence intensity (a.u.).

With “AAAACAGTATACTATTACATTACTACCATTTATTTGTACACGGAGTCACCTAGTGCAG”, the binding signal was 9540 fluorescence intensity (a.u.). Regarding “CTTCGCCGTCAACCCTGCTCTCCTGCAGCTGGTATTGCAACGGAGTCACCTAGTGCAG”, the binding signal is 9360 fluorescence intensity (a.u.). As to “GGGCAACAACTCTTGAAGCTAGCGGCAACTGTCAAACACACGGAGTCACCTAGTGCAG”, the binding signal is 8990 fluorescence intensity (a.u.).
